# These are yes or no findings as the source states them, for the method shown. In cells and extracts the contact can be indirect. Some binding calls cover weakened binding; strength is not graded here.
# Sequences of proteins named here, by UniProt entry; tags and fusion partners are left off.
# UniProt Q9ULW0: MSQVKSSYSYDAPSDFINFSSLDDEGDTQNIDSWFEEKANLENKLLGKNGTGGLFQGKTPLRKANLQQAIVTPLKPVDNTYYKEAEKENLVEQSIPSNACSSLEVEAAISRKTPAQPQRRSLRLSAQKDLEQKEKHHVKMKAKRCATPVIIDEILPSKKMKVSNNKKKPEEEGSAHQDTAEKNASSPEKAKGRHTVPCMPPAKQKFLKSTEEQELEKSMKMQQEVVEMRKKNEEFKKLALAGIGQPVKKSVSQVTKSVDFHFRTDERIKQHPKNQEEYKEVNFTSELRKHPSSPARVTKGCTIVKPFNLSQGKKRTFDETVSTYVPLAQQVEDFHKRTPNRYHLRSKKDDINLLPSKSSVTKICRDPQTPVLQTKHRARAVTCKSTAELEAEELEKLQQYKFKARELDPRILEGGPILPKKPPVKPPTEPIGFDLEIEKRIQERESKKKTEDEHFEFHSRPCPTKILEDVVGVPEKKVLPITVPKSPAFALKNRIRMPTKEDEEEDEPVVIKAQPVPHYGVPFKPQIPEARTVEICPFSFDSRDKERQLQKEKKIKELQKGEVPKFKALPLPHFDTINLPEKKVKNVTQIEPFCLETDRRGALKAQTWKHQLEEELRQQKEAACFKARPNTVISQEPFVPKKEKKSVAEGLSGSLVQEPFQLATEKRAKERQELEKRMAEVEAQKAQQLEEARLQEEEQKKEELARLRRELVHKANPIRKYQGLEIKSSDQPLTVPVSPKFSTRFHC
# UniProt Q92793: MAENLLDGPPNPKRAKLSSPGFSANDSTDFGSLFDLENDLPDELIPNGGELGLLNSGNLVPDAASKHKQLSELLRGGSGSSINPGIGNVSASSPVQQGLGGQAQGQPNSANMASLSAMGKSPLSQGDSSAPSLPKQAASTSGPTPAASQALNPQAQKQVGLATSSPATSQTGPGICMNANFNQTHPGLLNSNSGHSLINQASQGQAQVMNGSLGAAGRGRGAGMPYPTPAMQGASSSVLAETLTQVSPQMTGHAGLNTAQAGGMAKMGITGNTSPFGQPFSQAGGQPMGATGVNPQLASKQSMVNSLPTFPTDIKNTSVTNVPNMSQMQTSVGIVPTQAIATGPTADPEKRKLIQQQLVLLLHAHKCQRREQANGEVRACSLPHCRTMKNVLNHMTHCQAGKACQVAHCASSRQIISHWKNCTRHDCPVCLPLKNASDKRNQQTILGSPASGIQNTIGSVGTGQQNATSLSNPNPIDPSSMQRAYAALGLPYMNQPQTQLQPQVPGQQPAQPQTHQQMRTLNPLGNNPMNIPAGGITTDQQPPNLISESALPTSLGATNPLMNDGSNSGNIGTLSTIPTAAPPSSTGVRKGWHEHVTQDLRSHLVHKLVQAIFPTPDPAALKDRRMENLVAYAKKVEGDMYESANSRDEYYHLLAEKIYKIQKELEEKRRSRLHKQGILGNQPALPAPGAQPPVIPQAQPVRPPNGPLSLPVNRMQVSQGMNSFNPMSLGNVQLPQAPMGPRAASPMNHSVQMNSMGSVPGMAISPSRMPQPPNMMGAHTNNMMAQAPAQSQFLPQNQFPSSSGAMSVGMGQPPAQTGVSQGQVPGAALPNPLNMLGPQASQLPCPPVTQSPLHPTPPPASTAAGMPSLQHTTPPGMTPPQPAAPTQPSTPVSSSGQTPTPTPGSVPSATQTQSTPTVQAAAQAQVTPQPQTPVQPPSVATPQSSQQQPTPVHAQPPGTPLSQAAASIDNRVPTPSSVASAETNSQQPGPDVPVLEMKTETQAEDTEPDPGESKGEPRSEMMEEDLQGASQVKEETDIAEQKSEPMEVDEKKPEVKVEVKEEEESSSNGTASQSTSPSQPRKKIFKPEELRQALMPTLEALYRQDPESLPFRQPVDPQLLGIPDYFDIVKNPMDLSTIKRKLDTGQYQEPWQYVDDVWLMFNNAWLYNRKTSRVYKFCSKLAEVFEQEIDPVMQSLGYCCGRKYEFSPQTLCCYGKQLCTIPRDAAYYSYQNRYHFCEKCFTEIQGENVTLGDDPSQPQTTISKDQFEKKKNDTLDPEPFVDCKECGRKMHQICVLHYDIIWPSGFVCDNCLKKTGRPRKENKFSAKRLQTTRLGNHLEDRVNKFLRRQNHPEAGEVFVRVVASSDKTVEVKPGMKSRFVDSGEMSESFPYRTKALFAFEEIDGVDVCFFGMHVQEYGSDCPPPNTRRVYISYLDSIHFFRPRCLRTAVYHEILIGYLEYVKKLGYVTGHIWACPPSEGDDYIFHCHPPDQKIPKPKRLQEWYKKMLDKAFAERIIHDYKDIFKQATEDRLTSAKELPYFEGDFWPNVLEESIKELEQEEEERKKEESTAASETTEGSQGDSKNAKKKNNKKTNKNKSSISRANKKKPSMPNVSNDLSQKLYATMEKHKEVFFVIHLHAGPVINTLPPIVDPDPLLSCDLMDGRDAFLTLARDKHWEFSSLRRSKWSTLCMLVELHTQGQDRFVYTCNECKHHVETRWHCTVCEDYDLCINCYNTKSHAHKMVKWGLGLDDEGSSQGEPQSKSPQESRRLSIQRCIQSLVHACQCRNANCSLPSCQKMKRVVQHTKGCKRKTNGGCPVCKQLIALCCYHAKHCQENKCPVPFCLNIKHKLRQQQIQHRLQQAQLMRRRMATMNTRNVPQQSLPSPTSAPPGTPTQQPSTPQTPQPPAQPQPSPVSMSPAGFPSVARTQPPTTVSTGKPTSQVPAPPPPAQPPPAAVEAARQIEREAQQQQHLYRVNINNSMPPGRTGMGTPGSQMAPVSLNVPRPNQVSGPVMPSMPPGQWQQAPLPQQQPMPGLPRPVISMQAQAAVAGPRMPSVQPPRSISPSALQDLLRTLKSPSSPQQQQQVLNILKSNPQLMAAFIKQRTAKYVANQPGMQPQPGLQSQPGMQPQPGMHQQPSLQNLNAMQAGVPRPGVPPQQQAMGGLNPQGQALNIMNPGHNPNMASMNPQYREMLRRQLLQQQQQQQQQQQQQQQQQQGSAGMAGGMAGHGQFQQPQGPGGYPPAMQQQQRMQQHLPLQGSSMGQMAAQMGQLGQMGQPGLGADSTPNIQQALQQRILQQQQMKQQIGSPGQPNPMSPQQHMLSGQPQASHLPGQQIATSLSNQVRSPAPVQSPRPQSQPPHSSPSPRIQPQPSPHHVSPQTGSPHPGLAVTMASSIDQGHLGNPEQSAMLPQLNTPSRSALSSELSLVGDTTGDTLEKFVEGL
# UniProt Q13547: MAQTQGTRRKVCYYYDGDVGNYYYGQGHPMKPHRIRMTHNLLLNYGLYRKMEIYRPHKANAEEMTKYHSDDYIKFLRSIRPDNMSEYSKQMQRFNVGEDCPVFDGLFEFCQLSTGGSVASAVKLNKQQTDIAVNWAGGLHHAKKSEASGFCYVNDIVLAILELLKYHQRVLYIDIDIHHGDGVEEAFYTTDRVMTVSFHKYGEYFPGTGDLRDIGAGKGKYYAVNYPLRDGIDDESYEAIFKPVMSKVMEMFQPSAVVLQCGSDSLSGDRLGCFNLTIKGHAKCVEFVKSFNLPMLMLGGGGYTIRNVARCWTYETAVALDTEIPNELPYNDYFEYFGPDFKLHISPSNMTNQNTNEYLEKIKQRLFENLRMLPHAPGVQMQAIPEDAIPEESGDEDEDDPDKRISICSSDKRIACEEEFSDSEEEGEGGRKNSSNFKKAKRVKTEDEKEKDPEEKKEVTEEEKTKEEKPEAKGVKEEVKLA
# Target: HA-TPX2 (UniProt Q9ULW0)
# Test: co-IP; HEK293T cells overexpressing a Flag-tagged protein (CBP or HDAC1) and HA-TPX2; IP buffer, protein A/G beads, Western blot
row,Substance,binding
1,Flag-CBP (from UniProt Q92793 1-2442) (enzyme),binds
2,Flag-HDAC1 (from UniProt Q13547 1-482) (enzyme),binds

# Source: paper PMC11924114
